The results in this text go back to the supplement of paper PMC10735217.

The other results are listed elsewhere or left out. Repeats in this data set agree poorly, so a single value says little.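 In a drug-repurposing library screen, luminescence reads luciferase driven by eight TEAD-binding elements, stably integrated into human kidney-derived cells. Compounds scoring over five robust Z scores above the plate mean are called hits.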

The subject of this test is HEK293A TEAD-LUC reporter. Nature of the test: TEAD-luciferase reporter activity (YAP activation), robust Z score vs plate; higher = stronger YAP/TEAD activation. The note with it: 24 h.

As for `Nc1ccc(S(=O)(=O)O)cc1`, the TEAD-luciferase reporter activity runs as follows: (compound concentration: 200 nM) inactive: -1.13; (compound concentration: 2 uM) inactive: -0.418; (compound concentration: 10 uM) inactive: -0.0155.
Taken in the same sequence, the figures for `CS(=O)(=O)OCC(OS(C)(=O)=O)C(O)C(O)C(COS(C)(=O)=O)OS(C)(=O)=O` (centres undefined) were inactive: -1.06, inactive: -0.268 and inactive: -0.0909.
Take `OCC(O)CN1CCN(c2ccccc2)CC1` (centres undefined) [levodropropizine]: the TEAD-luciferase reporter activity was inactive: -1.51 (compound concentration: 200 nM), inactive: -1.14 (compound concentration: 2 uM) and inactive: -0.399 (compound concentration: 10 uM).
`COc1ccc2[nH]c3c(c2c1)CCN[C@]31CS[C@@H]2c3c(OC(C)=O)c(C)c4c(c3[C@H](COC1=O)N1[C@@H]2[C@H]2c3c(cc(C)c(OC)c3O)C[C@@H]([C@@H]1O)N2C)OCO4` [Lurbinectedin]: the TEAD-luciferase reporter activity is, setting by setting: (compound concentration: 200 nM) inactive: -1.34; (compound concentration: 10 uM) inactive: 0.881.
`COc1ncc(-c2nc3c(n2C(C)C)[C@H](c2ccc(Cl)cc2)N(c2cc(Cl)cn(C)c2=O)C3=O)c(OC)n1`: the TEAD-luciferase reporter activity (compound concentration: 200 nM) was inactive: 0.666, the TEAD-luciferase reporter activity (compound concentration: 2 uM) was inactive: -0.712 and the TEAD-luciferase reporter activity (compound concentration: 10 uM) is inactive: 3.89.
Taken in the same sequence, the figures for `COCCCN1CC[C@H](CNC(=O)c2cc(Cl)c(N)c3c2OCC3)[C@@H](O)C1` were inactive: 0.235, inactive: -0.768 and inactive: -0.583.
Taken in the same sequence, the figures for `N[C@@H](Cc1ccc(B(O)O)cc1)C(=O)O` [Boronophenylalanine] were inactive: -0.935, inactive: -1.17 and inactive: -0.556.
Taken in the same sequence, the figures for `COC(=O)C1=C(C)NC(C)=C(C(=O)OC/C=C/c2ccc(Cn3ccnc3)cc2)C1c1cccc([N+](=O)[O-])c1` (centres undefined) were inactive: -1.05, inactive: -1.93 and inactive: -1.92.
Consider `Cc1ccc(NC(=O)c2nc[nH]c2C)cc1Cl`, for which the TEAD-luciferase reporter activity (compound concentration: 200 nM) is active: 9.67, the TEAD-luciferase reporter activity (compound concentration: 2 uM) is inactive: 1.96 and the TEAD-luciferase reporter activity (compound concentration: 10 uM) is inactive: 0.95.
Taken in the same sequence, the figures for `COc1ccc(-c2ccc(S(=O)(=O)NC(CC(C)C)C(=O)O)cc2)cc1` (centres undefined) were inactive: -0.673, inactive: -1.74 and inactive: -0.73.
Taken in the same sequence, the figures for `CC(C)(C)C(=O)c1ccc(C(=O)O)cc1` were inactive: -2.57, inactive: -0.203 and inactive: -0.468.
Taken in the same sequence, the figures for `CCCCc1nc(Cl)c(CO)n1Cc1ccc(-c2ccccc2-c2nn[nH]n2)cc1` [losartan potassium] were inactive: -2.51, inactive: -1.89 and inactive: 2.33.
On to `C=CCN1C(=O)CS/C1=N\NC(=S)NC`, for which the TEAD-luciferase reporter activity by setting is: (compound concentration: 200 nM) inactive: -1.37; (compound concentration: 2 uM) inactive: -0.577; (compound concentration: 10 uM) inactive: -2.76.
For `CC(C)[C@H](N)C(=O)OCC(CO)OCn1cnc2c(O)nc(N)nc21` (some centres undefined) [valganciclovir], the TEAD-luciferase reporter activity by setting is: (compound concentration: 200 nM) inactive: 0.194; (compound concentration: 10 uM) inactive: 2.49.
As to `CNC(=O)[C@H](C/C=C/c1ccc(N(C)c2ncccn2)cc1)NC(=O)c1c(Cl)cccc1Cl`, the TEAD-luciferase reporter activity is, setting by setting: (compound concentration: 200 nM) inactive: -0.164; (compound concentration: 2 uM) inactive: -1.47; (compound concentration: 10 uM) inactive: -0.728.
Taken in the same sequence, the figures for `CN(CC1(C)CCCO1)S(=O)(=O)c1ccc(Cl)c(S(N)(=O)=O)c1` (centres undefined) [Mefruside] were inactive: 0.256, inactive: 1.18 and inactive: 2.26.
Taken in the same sequence, the figures for `O=C1NC(=O)C2(CCc3ccccc3C2)N1` (centres undefined) were inactive: -1.5, inactive: 3.43 and inactive: 0.074.
For `NC(=O)N(CCO)/N=C/c1ccc([N+](=O)[O-])o1`, the TEAD-luciferase reporter activity is, setting by setting: (compound concentration: 200 nM) inactive: 0.129; (compound concentration: 2 uM) inactive: -0.257; (compound concentration: 10 uM) inactive: 0.922.
Taken in the same sequence, the figures for `CN(C)c1ccccc1CSc1cccc(O)c1` [analog of MOXYFETIN] were inactive: 0.215, inactive: 1.88 and inactive: -0.252.
Turning to `Nc1cc(-c2ccncc2)c[nH]c1=O` [amri], the TEAD-luciferase reporter activity reads like this: (compound concentration: 200 nM) inactive: -1.14; (compound concentration: 2 uM) inactive: -1.71; (compound concentration: 10 uM) inactive: -1.47.
With `Cc1nc(O)c(C#N)cc1-c1ccncc1` [milri], the TEAD-luciferase reporter activity (compound concentration: 2 uM) was inactive: 0.77.
With `Nc1nc2c(ncn2[C@H]2C[C@H](O)[C@@H](CO)O2)c(=O)[nH]1`, the TEAD-luciferase reporter activity is, setting by setting: (compound concentration: 200 nM) inactive: 0.0744; (compound concentration: 10 uM) inactive: -0.291.
For the molecule `Nc1nc2c(ncn2[C@H]2C[C@H](O)[C@@H](CO)O2)c(=O)[nH]1` [Deoxyguanosine], the TEAD-luciferase reporter activity (compound concentration: 2 uM) is inactive: -0.234.
Take `COC(=O)c1cc2nc([S+]([O-])Cc3ncccc3C)[nH]c2cc1C` (centres undefined): the TEAD-luciferase reporter activity was inactive: -0.266 (compound concentration: 200 nM), inactive: -0.231 (compound concentration: 2 uM) and inactive: 0.175 (compound concentration: 10 uM).
Regarding `CC1CCN(CCCC(=O)c2ccc(F)cc2)CC1` [melperone], the TEAD-luciferase reporter activity (compound concentration: 2 uM) is inactive: -2.05.
Regarding `CC1CCN(CCCC(=O)c2ccc(F)cc2)CC1` [Metylperon], the TEAD-luciferase reporter activity by setting is: (compound concentration: 200 nM) inactive: -0.455; (compound concentration: 10 uM) inactive: -1.36.
Take `OCC1O[C@@H]2OC3C(CO)O[C@@H](OC4C(CO)O[C@@H](OC5C(CO)O[C@H](OC6C(CO)O[C@@H](OC7C(CO)O[C@@H](OC8C(CO)O[C@@H](OC9C(CO)O[C@H](OC1[C@H](O)[C@@H]2O)[C@@H](O)[C@H]9O)[C@@H](O)[C@H]8O)[C@@H](O)[C@H]7O)[C@@H](O)[C@H]6O)[C@@H](O)[C@H]5O)[C@@H](O)[C@H]4O)[C@@H](O)[C@H]3O` (some centres undefined): the TEAD-luciferase reporter activity is, setting by setting: (compound concentration: 200 nM) inactive: 0.335; (compound concentration: 2 uM) inactive: -1.97; (compound concentration: 10 uM) inactive: 1.79.
Taken in the same sequence, the figures for `O=P(O)(O)[C@H](CCCc1cccc(Oc2ccccc2)c1)S(=O)(=O)O` were inactive: 0.0846, inactive: -0.535 and inactive: 4.24.
